Laboratory results reported in paper PMC11854013.
These are yes or no findings as the source states them, for the method shown. Binding seen in cells or lysates may run through a third protein. Binding can be weak; no strength is given. For some of these results: Sequences can lack the tags named with a protein.

T1: Myc-SVCV-P (spring viraemia of carp virus) (UniProt Q91DS2)
T1 sequence: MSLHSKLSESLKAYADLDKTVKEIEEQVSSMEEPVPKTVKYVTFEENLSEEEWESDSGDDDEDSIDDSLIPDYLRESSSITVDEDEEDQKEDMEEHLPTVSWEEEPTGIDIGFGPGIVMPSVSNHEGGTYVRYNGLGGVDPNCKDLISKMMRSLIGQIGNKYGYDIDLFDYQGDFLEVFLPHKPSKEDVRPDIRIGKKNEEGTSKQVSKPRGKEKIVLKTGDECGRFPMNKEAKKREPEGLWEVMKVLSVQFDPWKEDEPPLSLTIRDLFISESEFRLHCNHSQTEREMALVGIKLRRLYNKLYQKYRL

T2: SVCV-N (spring viraemia of carp virus) (UniProt Q91DS3)
T2 sequence: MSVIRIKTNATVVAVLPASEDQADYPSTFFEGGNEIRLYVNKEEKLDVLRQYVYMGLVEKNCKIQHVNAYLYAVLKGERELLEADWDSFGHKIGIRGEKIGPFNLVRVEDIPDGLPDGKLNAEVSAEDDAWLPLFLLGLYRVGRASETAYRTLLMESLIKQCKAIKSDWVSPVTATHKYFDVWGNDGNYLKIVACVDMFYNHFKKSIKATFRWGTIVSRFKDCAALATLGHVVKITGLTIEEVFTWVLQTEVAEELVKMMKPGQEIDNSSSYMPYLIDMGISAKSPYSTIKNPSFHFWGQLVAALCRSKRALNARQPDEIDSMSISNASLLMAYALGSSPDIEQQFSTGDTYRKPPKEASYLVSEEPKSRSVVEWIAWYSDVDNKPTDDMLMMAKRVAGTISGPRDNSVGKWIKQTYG

T3: SVCV-M (spring viraemia of carp virus) (UniProt P04888)
T3 sequence: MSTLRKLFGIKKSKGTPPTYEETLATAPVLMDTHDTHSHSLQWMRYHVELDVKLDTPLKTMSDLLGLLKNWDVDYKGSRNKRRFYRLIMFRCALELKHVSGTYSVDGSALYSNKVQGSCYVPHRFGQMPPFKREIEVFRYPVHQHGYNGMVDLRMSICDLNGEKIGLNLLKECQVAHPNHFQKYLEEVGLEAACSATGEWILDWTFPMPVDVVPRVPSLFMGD


Tests used:
[1] = target: T1, Myc-SVCV-P (spring viraemia of carp virus); assay: co-IP; HEK293 cells co-transfected with 10 ug of plasmids, 24 h; lysed in RIPA buffer with PMSF; supernatant incubated with anti-Myc or anti-GFP affinity gel; washed three times with lysis buffer; western blot
[2] = target: T2, SVCV-N (spring viraemia of carp virus); assay: as above
[3] = target: T3, SVCV-M (spring viraemia of carp virus); assay: as above
[4] = target: T1, Myc-SVCV-P (spring viraemia of carp virus); assay: co-IP; as a1, cell lysates digested with RNase before the co-IP
[5] = target: GFP-hnRNPC (zebrafish hnRNPC) (zebrafish (Danio rerio)); assay: co-IP; HEK293 cells co-transfected with 10 ug of plasmids, 24 h; lysed in RIPA buffer with PMSF; supernatant incubated with anti-Myc or anti-GFP affinity gel; washed three times with lysis buffer; western blot

Molecule | binding [1] | binding [2] | binding [3] | binding [4] | binding [5]
Flag-hnRNPCC (84-272 aa) (zebrafish (Danio rerio)) (domain or fragment) | binds |  |  |  | 
Flag-hnRNPCRRM (1-83 aa) (zebrafish (Danio rerio)) (domain or fragment) | binds |  |  |  | 
GFP-hnRNPC (zebrafish hnRNPC) | binds | binds | binds | binds | 
Myc-SVCV-PCD (domain or fragment, UniProt Q91DS2 101-187) SWEEEPTGIDIGFGPGIVMPSVSNHEGGTYVRYNGLGGVDPNCKDLISKMMRSLIGQIGNKYGYDIDLFDYQGDFLEVFLPHKPSKE |  |  |  |  | binds
